These results are taken from US20250283871A1, “COMPOSITIONS AND METHODS FOR MODULATING THE INTERACTION BETWEEN SS18-SSX FUSION ONCOPROTEIN AND NUCLEOSOMES” (Dana-Farber Cancer Institute, Inc., priority 2020, published 2025).

This data set relates to BAF complex subunits and histone proteins. Nature of the data set: Mass spectrometry proteomics of purified HA-SS18 WT and HA-SS18-SSX1 complexes (Tables 5A-5E). The following applies: for Total / Unique: HA-SS18SSX1_CHR_peptides; for Total: total peptides of the identified protein; for Unique: unique peptides of the identified protein. Set-up: species or system human.
The mark [1] stands for this setting: HA-SS18WT_NE_peptides: proteins co-purified with HA-SS18 WT from nuclear extract (NE), HEK-293T.

B1: NUP62 (protein)
chain: SGFNFGGTGAPTGGFTFGTAKTATTTPATGFSFSTSGTGGFNFGAPFQPATSTPSTGLFSLATQTPATQTTGFTFGTATLASGGTGFSLGIGASKLNLSNTAATPAMANPSGFGLGSSNLTNAISSTVTSSQGTAPTGFVFGPSTTSVAPATTSGGFSFTGGSTAQPSGFNIGSAGNSAQPTAPATLPFTPATPAATTAGATQPAAPTPTATITSTGPSLFASIATAPTSSATTGLSLCTPVTTAGAPTAGTQGFSLKAPGAASGTSTTTSTAATATATTTSSSSTTGFALNLKPLAPAGIPSNTAAAVTAPPGPGAAAGAAASSAMTYAQLESLINKWSLELEDQERHFLQQATQVNAWDRTLIENGEKITSLHREVEKVKLDQKRLDQELDFILSQQKELEDLLSPLEELVKEQSGTIYLQHADEEREKTYKLAENIDAQLKRMAQDLKDIIEHLNTSGAPADTSDPLQQICKILNAHMDSLQWIDQNSALLQRKVEEVTKVCEGRRKEQERSFRITFD
With B1, the Total stood at 1 and the Unique was determined as 1. Under setting [1], the “Total (peptides)” value stood at 1 and the “Unique (peptides)” value is 1.

B2: ZCCHC10 (protein, UniProt Q8TBK6 1-192, looked up)
Zinc finger CCHC …: MATPMHRLIARRQAFDTELQPVKTFWILIQPSIVISEANKQHVRCQKCLEFGHWTYECTGKRKYLHRPSRTAELKKALKEKENRLLLQQSIGETNVERKAKKKRSKSVTSSSSSSSDSSASDSSSESEETSTSSSSEDSDTDESSSSSSSSASSTTSSSSSDSDSDSSSSSSSSTSTDSSSDDEPPKKKKKK
Take B2: the Total is 1 and the Unique was 1.

B3: SLU7 (protein, UniProt O95391 2-586, looked up)
Pre-mRNA-splicing factor SLU7: SATVVDAVNAAPLSGSKEMSLEEPKKMTREDWRKKKELEEQRKLGNAPAEVDEEGKDINPHIPQYISSVPWYIDPSKRPTLKHQRPQPEKQKQFSSSGEWYKRGVKENSIITKYRKGACENCGAMTHKKKDCFERPRRVGAKFTGTNIAPDEHVQPQLMFDYDGKRDRWNGYNPEEHMKIVEEYAKVDLAKRTLKAQKLQEELASGKLVEQANSPKHQWGEEEPNSQMEKDHNSEDEDEDKYADDIDMPGQNFDSKRRITVRNLRIREDIAKYLRNLDPNSAYYDPKTRAMRENPYANAGKNPDEVSYAGDNFVRYTGDTISMAQTQLFAWEAYDKGSEVHLQADPTKLELLYKSFKVKKEDFKEQQKESILEKYGGQEHLDAPPAELLLAQTEDYVEYSRHGTVIKGQERAVACSKYEEDVKIHNHTHIWGSYWKEGRWGYKCCHSFFKYSYCTGEAGKEIVNSEECIINEITGEESVKKPQTLMELHQEKLKEEKKKKKKKKKKHRKSSSDSDDEEKKHEKLKKALNAEEARLLHVKETMQIDERKRPYNSMYETREPTEEEMEAYRMKRQRPDDPMASFLGQ
In the case of B3, the Total turned out to be 1 and the Unique turned out to be 1.
